# Laboratory results taken from patent US7608242B2 (GE Healthcare Limited, priority 2001, dated 2009).
# Assay: general procedure: Fmoc solid-phase peptide synthesis; Fmoc-Tyr(tBu)-SASRIN
# Details: TFA salt; for final HPLC purity: oxidative folding step
substance,measurement,setting,value
"PEPTIDE1{[CA1-Succ].C.C.E.L.C.C.N.P.A.C.A.G.C.Y}$PEPTIDE1,PEPTIDE1,2:R3-7:R3|PEPTIDE1,PEPTIDE1,3:R3-11:R3|PEPTIDE1,PEPTIDE1,6:R3-14:R3$$$V2.0",final HPLC purity,,>98%
same,final HPLC purity,exchanged to acetate salt,>80%
same,crude HPLC purity,"whole synthesis, scale of the general procedure 10 g polymer, 0.6 mmol/g loading, exchanged to acetate salt",around 70%

# HELM strings list residues between dots; [ac] is acetyl, [am] amide, other brackets name non-standard units.
